# Measurements as given in the supplement of paper PMC8728848.
# The other results are listed elsewhere or left out.
# B1: TbCVNHOa (Tuber borchii), Q5MK11 (protein)
# chain: MSYADSSRNAVLTNGGRTLRAECRNADGNWVTSELDLDTCIGNPNGFLGWGMQNFSHSSEDIKLEEGGRKLTCRPKTVDGGFRERQGIDLNRIQNVNGRLVFQ
# Tests used:
# Experiment in all cases: glycan array binding signal (z-score within array); higher = stronger binding
# Conditions in all cases: glycan notation: IUPAC condensed, linker removed
# [1] = biological target: Gal(b1-2)Gal
# How it was run: (§1)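 Negative Z-scores can be read as non-binding. The Z-score is calculated within each array and then averaged across arrays of one protein sequence at different concentrations or buffers and across linkers. Arrays, 3228 in all, were curated from the Consortium for Functional Glycomics database and kept only where the protein sequence was available.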
# [2] = biological target: Gal(b1-3)Gal
# How it was run: as §1
# [3] = biological target: Gal(b1-3)Gal(b1-4)GlcNAc
# How it was run: as §1
# [4] = biological target: Gal(b1-3)GalNAc
# How it was run: as §1
# [5] = biological target: Gal(b1-3)GalNAc(b1-3)Gal(a1-4)Gal(b1-4)Glc
# How it was run: as §1
# [6] = biological target: Gal(b1-3)GalNAc(b1-4)Gal(b1-4)Glc
# How it was run: as §1
# [7] = biological target: Gal(b1-3)GalNAc(b1-4)[Neu5Ac(a2-3)]Gal(b1-4)Glc
# How it was run: as §1
# [8] = biological target: Gal(b1-3)GlcNAc
# How it was run: as §1
# [9] = biological target: Gal(b1-3)GlcNAc(b1-3)Gal(b1-3)GlcNAc
# How it was run: as §1
# [10] = biological target: Gal(b1-3)GlcNAc(b1-3)Gal(b1-4)Glc
# How it was run: as §1
# [11] = biological target: Gal(b1-3)GlcNAc(b1-3)Gal(b1-4)GlcNAc
# How it was run: as §1
# [12] = biological target: Gal(b1-3)[Fuc(a1-4)]GlcNAc
# How it was run: as §1
# [13] = biological target: Gal(b1-3)[Fuc(a1-4)]GlcNAc(b1-3)Gal(b1-3)[Fuc(a1-4)]GlcNAc
# How it was run: as §1
# [14] = biological target: Gal(b1-3)[Fuc(a1-4)]GlcNAc(b1-3)Gal(b1-4)GlcNAc
# How it was run: as §1
# [15] = biological target: Gal(b1-3)[Fuc(a1-4)]GlcNAc(b1-3)Gal(b1-4)[Fuc(a1-3)]GlcNAc
# How it was run: as §1
# [16] = biological target: Gal(b1-3)[GlcNAc(b1-6)]GalNAc
# How it was run: as §1
# [17] = biological target: Gal(b1-3)[Neu5Ac(a2-6)]GalNAc
# How it was run: as §1
# [18] = biological target: Gal(b1-3)[Neu5Ac(a2-6)]GlcNAc(b1-6)Gal(b1-4)Glc
# How it was run: as §1
# [19] = biological target: Gal(b1-3)[Neu5Ac(b2-6)]GalNAc
# How it was run: as §1
# [20] = biological target: Gal(b1-4)GalNAc(a1-3)[Fuc(a1-2)]Gal(b1-4)GlcNAc
# How it was run: as §1
# [21] = biological target: Gal(b1-4)GalNAc(b1-3)[Fuc(a1-2)]Gal(b1-4)GlcNAc
# How it was run: as §1
# [22] = biological target: Gal(b1-4)Glc
# How it was run: as §1
# [23] = biological target: Gal(b1-4)Glc6S
# How it was run: as §1
# [24] = biological target: Gal(b1-4)GlcNAc
# How it was run: as §1
# [25] = biological target: Gal(b1-4)GlcNAc(a1-6)Gal(b1-4)GlcNAc
# How it was run: as §1
# [26] = biological target: Gal(b1-4)GlcNAc(b1-2)Man(a1-3)[Gal(b1-4)GlcNAc(b1-2)Man(a1-6)]Man(b1-4)GlcNAc(b1-4)GlcNAc
# How it was run: as §1
# [27] = biological target: Gal(b1-4)GlcNAc(b1-3)Gal(b1-3)GlcNAc
# How it was run: as §1
# [28] = biological target: Gal(b1-4)GlcNAc(b1-3)Gal(b1-4)Glc
# How it was run: as §1
# [29] = biological target: Gal(b1-4)GlcNAc(b1-3)Gal(b1-4)GlcNAc
# How it was run: as §1
# [30] = biological target: Gal(b1-4)GlcNAc(b1-3)Gal(b1-4)GlcNAc(b1-3)Gal(b1-4)GlcNAc
# How it was run: as §1
# [31] = biological target: Gal(b1-4)GlcNAc(b1-3)Gal(b1-4)[Fuc(a1-3)]GlcNAc(b1-3)Gal(b1-4)[Fuc(a1-3)]GlcNAc
# How it was run: as §1
# [32] = biological target: Gal(b1-4)GlcNAc(b1-3)GalNAc
# How it was run: as §1
# [33] = biological target: Gal(b1-4)GlcNAc(b1-3)[Gal(b1-4)GlcNAc(b1-6)]Gal(b1-4)GlcNAc
# How it was run: as §1
# [34] = biological target: Gal(b1-4)GlcNAc(b1-3)[Gal(b1-4)GlcNAc(b1-6)]GalNAc
# How it was run: as §1
# [35] = biological target: Gal(b1-4)GlcNAc(b1-3)[GlcNAc(b1-6)]Gal(b1-4)GlcNAc
# How it was run: as §1
# [36] = biological target: Gal(b1-4)GlcNAc(b1-6)Gal(b1-4)GlcNAc
# How it was run: as §1
# [37] = biological target: Gal(b1-4)GlcNAc(b1-6)Gal(b1-4)GlcNAc(b1-6)GalNAc
# How it was run: as §1
# [38] = biological target: Gal(b1-4)GlcNAc(b1-6)GalNAc
# How it was run: as §1
# [39] = biological target: Gal(b1-4)GlcNAc(b1-6)[Gal(b1-3)]GalNAc
# How it was run: as §1
# [40] = biological target: Gal3S(b1-3)GalNAc
# How it was run: as §1
# [41] = biological target: Gal3S(b1-3)GlcNAc
# How it was run: as §1
# [42] = biological target: Gal3S(b1-3)[Fuc(a1-4)]GlcNAc
# How it was run: as §1
# [43] = biological target: Gal3S(b1-4)Glc
# How it was run: as §1
# [44] = biological target: Gal3S(b1-4)Glc6S
# How it was run: as §1
# [45] = biological target: Gal3S(b1-4)GlcNAc
# How it was run: as §1
# [46] = biological target: Gal3S(b1-4)GlcNAc6S
# How it was run: as §1
# [47] = biological target: Gal3S(b1-4)[Fuc(a1-3)]Glc
# How it was run: as §1
# [48] = biological target: Gal3S4S(b1-4)GlcNAc
# How it was run: as §1
# [49] = biological target: Gal3S6S(b1-4)GlcNAc
# How it was run: as §1
# [50] = biological target: Gal3S6S(b1-4)GlcNAc6S
# How it was run: as §1
# [51] = biological target: Gal4S(b1-4)GlcNAc
# How it was run: as §1
# [52] = biological target: Gal4S6S(b1-4)GlcNAc
# How it was run: as §1
# [53] = biological target: Gal6S(b1-4)Glc
# How it was run: as §1
# [54] = biological target: Gal6S(b1-4)Glc6S
# How it was run: as §1
# [55] = biological target: Gal6S(b1-4)GlcNAc
# How it was run: as §1
# [56] = biological target: Gal6S(b1-4)GlcNAc6S
# How it was run: as §1
# [57] = biological target: GalNAc(a1-3)Gal
# How it was run: as §1
# [58] = biological target: GalNAc(a1-3)GalNAc
# How it was run: as §1
# [59] = biological target: GalNAc(b1-3)Gal
# How it was run: as §1
# [60] = biological target: GalNAc(b1-3)Gal(a1-4)Gal(b1-4)GlcNAc
# How it was run: as §1
binder,measurement,setting,value
B1,glycan array binding signal (z-score),[1],0.626
same,glycan array binding signal (z-score),[2],-0.311
same,glycan array binding signal (z-score),[3],-0.935
same,glycan array binding signal (z-score),[4],-0.24
same,glycan array binding signal (z-score),[5],-0.147
same,glycan array binding signal (z-score),[6],0.203
same,glycan array binding signal (z-score),[7],-0.054
same,glycan array binding signal (z-score),[8],-0.291
same,glycan array binding signal (z-score),[9],-0.382
same,glycan array binding signal (z-score),[10],2.76
same,glycan array binding signal (z-score),[11],-0.551
same,glycan array binding signal (z-score),[12],-0.086
same,glycan array binding signal (z-score),[13],-0.072
same,glycan array binding signal (z-score),[14],0.085
same,glycan array binding signal (z-score),[15],-0.116
same,glycan array binding signal (z-score),[16],-0.531
same,glycan array binding signal (z-score),[17],-0.245
same,glycan array binding signal (z-score),[18],0.495
same,glycan array binding signal (z-score),[19],-0.508
same,glycan array binding signal (z-score),[20],-0.282
same,glycan array binding signal (z-score),[21],-0.096
same,glycan array binding signal (z-score),[22],-0.074
same,glycan array binding signal (z-score),[23],0.322
same,glycan array binding signal (z-score),[24],0.276
same,glycan array binding signal (z-score),[25],0.041
same,glycan array binding signal (z-score),[26],-0.185
same,glycan array binding signal (z-score),[27],-0.43
same,glycan array binding signal (z-score),[28],1.38
same,glycan array binding signal (z-score),[29],-0.399
same,glycan array binding signal (z-score),[30],-0.117
same,glycan array binding signal (z-score),[31],-0.173
same,glycan array binding signal (z-score),[32],-0.207
same,glycan array binding signal (z-score),[33],-0.177
same,glycan array binding signal (z-score),[34],-0.412
same,glycan array binding signal (z-score),[35],-0.8
same,glycan array binding signal (z-score),[36],-0.653
same,glycan array binding signal (z-score),[37],-0.07
same,glycan array binding signal (z-score),[38],-0.523
same,glycan array binding signal (z-score),[39],-0.298
same,glycan array binding signal (z-score),[40],-0.036
same,glycan array binding signal (z-score),[41],0.141
same,glycan array binding signal (z-score),[42],0.067
same,glycan array binding signal (z-score),[43],-0.224
same,glycan array binding signal (z-score),[44],0.335
same,glycan array binding signal (z-score),[45],-0.034
same,glycan array binding signal (z-score),[46],0.448
same,glycan array binding signal (z-score),[47],-0.266
same,glycan array binding signal (z-score),[48],0.626
same,glycan array binding signal (z-score),[49],-0.13
same,glycan array binding signal (z-score),[50],-0.004
same,glycan array binding signal (z-score),[51],0.199
same,glycan array binding signal (z-score),[52],-0.13
same,glycan array binding signal (z-score),[53],-0.073
same,glycan array binding signal (z-score),[54],0.139
same,glycan array binding signal (z-score),[55],0.146
same,glycan array binding signal (z-score),[56],0.195
same,glycan array binding signal (z-score),[57],0.604
same,glycan array binding signal (z-score),[58],-0.403
same,glycan array binding signal (z-score),[59],0.821
same,glycan array binding signal (z-score),[60],0.396

# A section of the results above, as a working copy:
binder,measurement,setting,value
B1,glycan array binding signal (z-score),[10],2.76
same,glycan array binding signal (z-score),[11],-0.551
same,glycan array binding signal (z-score),[12],-0.086
same,glycan array binding signal (z-score),[13],-0.072
same,glycan array binding signal (z-score),[14],0.085
same,glycan array binding signal (z-score),[15],-0.116
same,glycan array binding signal (z-score),[16],-0.531
same,glycan array binding signal (z-score),[17],-0.245
same,glycan array binding signal (z-score),[18],0.495
same,glycan array binding signal (z-score),[19],-0.508
same,glycan array binding signal (z-score),[20],-0.282
same,glycan array binding signal (z-score),[21],-0.096
same,glycan array binding signal (z-score),[22],-0.074
same,glycan array binding signal (z-score),[23],0.322
same,glycan array binding signal (z-score),[24],0.276
same,glycan array binding signal (z-score),[25],0.041
same,glycan array binding signal (z-score),[26],-0.185
same,glycan array binding signal (z-score),[27],-0.43
